One molecule from US20170121383A1 can be followed below.

In the experiment the target is T1, mature bone morphogenetic protein 10 (BMP10), human (human) (UniProt O95393).
T1 sequence: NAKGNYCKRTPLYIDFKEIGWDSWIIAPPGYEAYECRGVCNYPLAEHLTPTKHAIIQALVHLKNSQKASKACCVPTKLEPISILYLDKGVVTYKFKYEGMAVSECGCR
The experiment can be described thus: co-purification of the prodomain with mature BMP10 from HEK-EBNA conditioned medium (Q-Sepharose, then S200 gel filtration; non-reducing SDS-PAGE, western blot, mass spectrometry).

No constants are given. Whether binding was seen depends on the method and setting. Binding seen in cells or lysates may run through a third protein. A yes stands for co-enrichment or nearness to the bait. Other partners may have been found.

B1: BMP10 prodomain (propeptide of human bone morphogenetic protein 10) (protein)
chain: SPIMNLEQSPLEEDMSLFGDVFSEQDGVDFNTLLQSMKDEFLKTLNLSDIPTQDSAKVDPPEYMLELYNKFATDRTSMPSANIIRSFKNEDLFSQPVSFNGLRKYPLLFNVSIPHHEEVIMAELRLYTLVQRDRMIYDGVDRKITIFEVLESKGDNEGERNMLVLVSGEIYGTNSEWETFDVTDAIRRWQKSGSSTHQLEVHIESKHDEAEDASSGRLEIDTSAQNKHNPLLIVFSDDQSSDKERKEELNEMISHEQLPELDNLGLDSFSSGPGEEALLQMRSNIIYDSTARIRR
Consider B1, for which the binding entry was “binds”.
